Reference: the supplement of paper PMC10849652
Some of the results follow.

Amino acid sequences for entries named in this document (tags omitted). A change or cut given only in a name is not applied to a line headed by its entry.
UniProt O14818: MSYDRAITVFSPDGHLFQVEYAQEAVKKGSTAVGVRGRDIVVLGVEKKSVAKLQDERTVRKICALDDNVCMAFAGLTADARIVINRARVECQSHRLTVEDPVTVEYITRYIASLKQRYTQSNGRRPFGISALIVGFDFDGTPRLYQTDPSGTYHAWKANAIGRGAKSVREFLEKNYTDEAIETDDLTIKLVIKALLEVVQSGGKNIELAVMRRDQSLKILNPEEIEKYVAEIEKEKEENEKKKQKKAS
UniProt Q99460, whole entry, looked up: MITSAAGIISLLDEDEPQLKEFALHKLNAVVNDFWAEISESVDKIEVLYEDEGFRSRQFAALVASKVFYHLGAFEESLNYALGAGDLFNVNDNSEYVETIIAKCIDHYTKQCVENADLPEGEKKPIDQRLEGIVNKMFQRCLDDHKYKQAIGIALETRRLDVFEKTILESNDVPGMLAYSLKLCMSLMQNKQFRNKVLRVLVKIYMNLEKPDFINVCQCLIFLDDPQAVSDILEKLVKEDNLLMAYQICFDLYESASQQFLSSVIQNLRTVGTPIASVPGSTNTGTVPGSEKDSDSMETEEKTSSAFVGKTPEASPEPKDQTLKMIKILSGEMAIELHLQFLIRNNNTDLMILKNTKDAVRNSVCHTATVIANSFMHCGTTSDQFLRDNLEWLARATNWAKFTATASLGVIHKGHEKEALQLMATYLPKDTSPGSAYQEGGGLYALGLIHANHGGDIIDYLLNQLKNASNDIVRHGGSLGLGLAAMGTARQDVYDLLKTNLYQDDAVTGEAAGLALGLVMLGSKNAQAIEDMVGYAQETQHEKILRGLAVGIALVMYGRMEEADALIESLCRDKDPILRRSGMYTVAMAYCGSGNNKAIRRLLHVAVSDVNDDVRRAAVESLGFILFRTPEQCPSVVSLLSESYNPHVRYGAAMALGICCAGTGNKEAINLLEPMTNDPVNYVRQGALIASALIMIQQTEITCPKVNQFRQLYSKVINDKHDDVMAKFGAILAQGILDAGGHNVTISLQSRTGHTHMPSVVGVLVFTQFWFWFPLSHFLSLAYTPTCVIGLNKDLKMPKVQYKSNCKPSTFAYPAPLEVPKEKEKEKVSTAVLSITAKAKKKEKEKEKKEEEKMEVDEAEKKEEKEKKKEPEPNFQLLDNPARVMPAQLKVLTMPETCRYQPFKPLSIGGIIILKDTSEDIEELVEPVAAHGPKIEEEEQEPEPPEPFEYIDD
UniProt Q99436: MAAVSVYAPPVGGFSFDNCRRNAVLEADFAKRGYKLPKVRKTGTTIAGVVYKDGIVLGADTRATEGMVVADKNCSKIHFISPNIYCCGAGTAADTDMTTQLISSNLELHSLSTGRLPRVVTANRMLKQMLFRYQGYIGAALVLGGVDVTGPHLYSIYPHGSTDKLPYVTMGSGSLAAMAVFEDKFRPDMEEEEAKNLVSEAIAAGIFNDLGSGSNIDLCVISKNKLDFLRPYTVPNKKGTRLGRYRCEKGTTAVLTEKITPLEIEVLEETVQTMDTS
UniProt P17980, whole entry, looked up: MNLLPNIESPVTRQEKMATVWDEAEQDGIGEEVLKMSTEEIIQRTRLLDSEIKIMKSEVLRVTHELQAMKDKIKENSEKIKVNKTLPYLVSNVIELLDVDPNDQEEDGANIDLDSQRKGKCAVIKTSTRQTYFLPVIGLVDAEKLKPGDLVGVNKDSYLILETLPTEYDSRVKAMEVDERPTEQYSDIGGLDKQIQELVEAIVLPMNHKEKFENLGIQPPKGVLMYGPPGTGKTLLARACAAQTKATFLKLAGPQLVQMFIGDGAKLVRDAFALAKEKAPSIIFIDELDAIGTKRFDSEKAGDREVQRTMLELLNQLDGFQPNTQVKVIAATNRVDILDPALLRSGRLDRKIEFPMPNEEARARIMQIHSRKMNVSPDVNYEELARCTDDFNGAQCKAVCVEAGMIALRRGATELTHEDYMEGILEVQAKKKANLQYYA
UniProt Q9NRG1: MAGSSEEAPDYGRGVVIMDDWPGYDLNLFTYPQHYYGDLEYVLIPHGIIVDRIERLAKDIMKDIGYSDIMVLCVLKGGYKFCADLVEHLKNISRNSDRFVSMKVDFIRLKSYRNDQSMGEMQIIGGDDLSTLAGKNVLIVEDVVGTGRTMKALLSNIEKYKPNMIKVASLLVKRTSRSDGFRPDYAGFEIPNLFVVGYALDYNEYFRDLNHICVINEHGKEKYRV
UniProt Q2TAL8: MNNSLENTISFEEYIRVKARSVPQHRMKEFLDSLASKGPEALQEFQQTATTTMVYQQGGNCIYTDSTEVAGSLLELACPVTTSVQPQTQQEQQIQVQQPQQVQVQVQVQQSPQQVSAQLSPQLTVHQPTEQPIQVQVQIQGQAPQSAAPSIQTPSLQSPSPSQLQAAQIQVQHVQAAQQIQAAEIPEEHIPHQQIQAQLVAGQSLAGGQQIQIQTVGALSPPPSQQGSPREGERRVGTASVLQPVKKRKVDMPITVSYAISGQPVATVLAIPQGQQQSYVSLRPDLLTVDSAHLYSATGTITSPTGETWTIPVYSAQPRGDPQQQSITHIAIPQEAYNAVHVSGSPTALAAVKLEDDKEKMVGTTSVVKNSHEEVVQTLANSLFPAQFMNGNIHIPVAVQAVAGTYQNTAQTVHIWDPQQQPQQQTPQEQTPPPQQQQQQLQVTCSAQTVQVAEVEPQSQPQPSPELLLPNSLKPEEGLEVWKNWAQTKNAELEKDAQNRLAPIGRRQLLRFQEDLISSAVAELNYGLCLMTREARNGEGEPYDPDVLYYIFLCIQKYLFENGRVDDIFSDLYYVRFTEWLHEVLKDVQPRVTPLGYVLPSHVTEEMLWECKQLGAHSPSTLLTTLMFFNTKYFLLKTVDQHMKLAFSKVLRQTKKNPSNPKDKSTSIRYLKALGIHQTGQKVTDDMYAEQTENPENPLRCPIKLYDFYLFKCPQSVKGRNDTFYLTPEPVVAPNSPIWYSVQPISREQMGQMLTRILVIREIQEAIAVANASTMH
UniProt Q00577: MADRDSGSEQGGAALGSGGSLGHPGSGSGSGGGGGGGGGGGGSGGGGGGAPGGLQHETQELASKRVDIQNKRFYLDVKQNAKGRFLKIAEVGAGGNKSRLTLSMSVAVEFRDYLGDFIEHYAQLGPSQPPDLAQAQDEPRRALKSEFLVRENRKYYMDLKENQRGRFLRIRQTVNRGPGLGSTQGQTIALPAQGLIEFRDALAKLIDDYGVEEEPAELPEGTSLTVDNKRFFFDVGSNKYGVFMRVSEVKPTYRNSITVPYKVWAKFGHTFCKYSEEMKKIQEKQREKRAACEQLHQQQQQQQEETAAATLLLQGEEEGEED
UniProt Q8TAA3: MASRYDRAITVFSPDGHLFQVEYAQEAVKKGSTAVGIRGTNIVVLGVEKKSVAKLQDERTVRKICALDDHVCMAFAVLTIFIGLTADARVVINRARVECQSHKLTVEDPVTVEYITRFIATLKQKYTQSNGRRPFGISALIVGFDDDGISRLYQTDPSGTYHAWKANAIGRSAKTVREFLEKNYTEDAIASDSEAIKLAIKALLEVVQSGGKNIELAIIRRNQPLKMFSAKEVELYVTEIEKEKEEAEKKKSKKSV
UniProt Q3MIT2: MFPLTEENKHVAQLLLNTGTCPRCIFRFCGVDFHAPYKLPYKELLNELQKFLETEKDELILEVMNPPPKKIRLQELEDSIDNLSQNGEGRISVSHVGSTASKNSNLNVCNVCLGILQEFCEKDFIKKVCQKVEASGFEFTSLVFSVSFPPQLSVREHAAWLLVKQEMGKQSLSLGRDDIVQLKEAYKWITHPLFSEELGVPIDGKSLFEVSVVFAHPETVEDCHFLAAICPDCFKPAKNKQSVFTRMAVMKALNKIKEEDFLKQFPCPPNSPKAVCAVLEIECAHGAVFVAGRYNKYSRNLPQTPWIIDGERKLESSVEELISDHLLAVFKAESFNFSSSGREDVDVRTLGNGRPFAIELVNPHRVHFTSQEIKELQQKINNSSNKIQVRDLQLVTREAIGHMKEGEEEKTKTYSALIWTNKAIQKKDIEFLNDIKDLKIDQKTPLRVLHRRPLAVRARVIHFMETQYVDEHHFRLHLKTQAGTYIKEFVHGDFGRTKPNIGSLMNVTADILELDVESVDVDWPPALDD
UniProt Q9BXR0: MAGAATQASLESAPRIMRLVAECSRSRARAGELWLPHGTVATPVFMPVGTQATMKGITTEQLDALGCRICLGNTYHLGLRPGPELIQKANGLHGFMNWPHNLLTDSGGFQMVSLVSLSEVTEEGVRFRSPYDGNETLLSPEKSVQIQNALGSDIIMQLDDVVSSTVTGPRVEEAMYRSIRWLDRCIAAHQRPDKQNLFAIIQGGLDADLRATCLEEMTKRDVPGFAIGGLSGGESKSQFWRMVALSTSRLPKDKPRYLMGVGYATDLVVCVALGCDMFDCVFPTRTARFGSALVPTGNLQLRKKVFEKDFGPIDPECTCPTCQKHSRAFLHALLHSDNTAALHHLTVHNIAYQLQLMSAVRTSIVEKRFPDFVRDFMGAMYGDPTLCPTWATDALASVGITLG
UniProt Q96PU8: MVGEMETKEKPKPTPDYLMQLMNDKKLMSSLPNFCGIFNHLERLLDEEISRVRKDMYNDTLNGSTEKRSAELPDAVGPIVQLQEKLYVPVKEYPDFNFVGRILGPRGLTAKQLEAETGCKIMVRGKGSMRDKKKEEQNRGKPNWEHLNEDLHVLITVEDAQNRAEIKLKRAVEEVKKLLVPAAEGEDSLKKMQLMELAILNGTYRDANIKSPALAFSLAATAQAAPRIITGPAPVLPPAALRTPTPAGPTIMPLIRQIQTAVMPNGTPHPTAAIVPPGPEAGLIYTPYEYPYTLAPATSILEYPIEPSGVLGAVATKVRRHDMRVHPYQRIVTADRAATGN
UniProt Q96C36: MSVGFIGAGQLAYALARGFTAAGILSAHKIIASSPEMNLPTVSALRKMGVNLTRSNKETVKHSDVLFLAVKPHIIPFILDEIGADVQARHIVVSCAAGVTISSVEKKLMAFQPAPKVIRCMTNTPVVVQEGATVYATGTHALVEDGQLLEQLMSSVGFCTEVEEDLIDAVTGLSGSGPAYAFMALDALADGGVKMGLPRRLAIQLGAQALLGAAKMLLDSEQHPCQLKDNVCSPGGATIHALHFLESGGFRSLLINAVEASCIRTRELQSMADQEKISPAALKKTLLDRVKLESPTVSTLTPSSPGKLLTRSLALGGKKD
UniProt P20962: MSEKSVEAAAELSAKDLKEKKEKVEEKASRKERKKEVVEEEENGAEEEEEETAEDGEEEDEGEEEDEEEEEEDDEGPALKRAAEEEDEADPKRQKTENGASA
UniProt Q8WU10: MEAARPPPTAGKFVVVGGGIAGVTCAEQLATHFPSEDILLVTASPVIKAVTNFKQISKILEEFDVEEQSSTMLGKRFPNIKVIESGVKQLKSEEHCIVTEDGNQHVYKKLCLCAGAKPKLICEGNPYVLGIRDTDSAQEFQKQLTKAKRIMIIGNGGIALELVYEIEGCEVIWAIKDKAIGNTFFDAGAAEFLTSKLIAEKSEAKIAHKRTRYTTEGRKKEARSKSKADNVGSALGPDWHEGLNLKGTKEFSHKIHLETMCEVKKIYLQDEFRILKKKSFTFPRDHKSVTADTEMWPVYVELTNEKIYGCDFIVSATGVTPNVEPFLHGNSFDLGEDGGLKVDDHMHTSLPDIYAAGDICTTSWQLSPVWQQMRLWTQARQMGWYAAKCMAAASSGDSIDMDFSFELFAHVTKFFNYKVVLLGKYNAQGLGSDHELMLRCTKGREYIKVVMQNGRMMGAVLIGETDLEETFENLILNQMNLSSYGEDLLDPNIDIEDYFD
UniProt O00233: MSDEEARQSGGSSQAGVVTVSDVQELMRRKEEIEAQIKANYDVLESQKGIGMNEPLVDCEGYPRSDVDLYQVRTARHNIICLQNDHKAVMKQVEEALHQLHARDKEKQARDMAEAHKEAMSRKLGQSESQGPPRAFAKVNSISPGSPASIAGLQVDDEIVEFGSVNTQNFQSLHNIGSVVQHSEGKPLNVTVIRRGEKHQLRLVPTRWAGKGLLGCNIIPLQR
UniProt P49023, whole entry, looked up: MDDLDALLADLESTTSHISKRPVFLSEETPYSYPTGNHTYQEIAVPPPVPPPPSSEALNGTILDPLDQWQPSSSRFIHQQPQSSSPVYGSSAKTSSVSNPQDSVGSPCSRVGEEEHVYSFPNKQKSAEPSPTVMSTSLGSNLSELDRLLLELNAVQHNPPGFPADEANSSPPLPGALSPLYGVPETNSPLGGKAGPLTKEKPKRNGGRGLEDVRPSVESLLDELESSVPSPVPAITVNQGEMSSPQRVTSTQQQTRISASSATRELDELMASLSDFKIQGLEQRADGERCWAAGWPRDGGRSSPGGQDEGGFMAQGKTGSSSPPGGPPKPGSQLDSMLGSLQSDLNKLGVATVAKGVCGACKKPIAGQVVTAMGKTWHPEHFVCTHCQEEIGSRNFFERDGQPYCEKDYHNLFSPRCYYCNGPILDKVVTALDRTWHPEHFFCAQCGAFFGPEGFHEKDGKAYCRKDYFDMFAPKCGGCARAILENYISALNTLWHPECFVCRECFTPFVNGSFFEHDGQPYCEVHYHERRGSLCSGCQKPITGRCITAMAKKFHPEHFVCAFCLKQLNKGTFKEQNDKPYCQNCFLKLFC

How the values were obtained:
Experiment in all cases: log2 fold change, soluble protein after heating vs DMSO (PISA); higher = thermal stabilisation; K562 cells, 10 uM, 30 min; active = over 0.2 and 3.5 SD of the protein, either way, in both replicates (recomputed)
[1] = compound: COC1=CC=C(C=C1)CN2C=CC3=C2C=C(C=C3)C(=O)NO
Procedure, shortened: (§1)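 Quantification of soluble protein used TMTpro 16plex LC-MS/MS, with channel sums equalised. Samples were the supernatant after 21,000xg for 90 min of pooled aliquots from K562 cells (2×10^6 cells/mL) treated with 10 μM compound for 30 min, heated for 3 min over 48°C-58°C, and extracted in PBS with 0.5% NP-40 at 4°C. Values, from duplicates, describe thermal stability against control samples on a log2 fold-change scale.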

[2] = compound: CON(C)C(=O)N1N=C(c2cc(F)ccc2F)S[C@@]1(CCCN)c1ccccc1 [filanesib]
Procedure, shortened: as §1

[3] = compound: CO[C@H]1C[C@@H]2CC[C@@H](C)[C@@](O)(O2)C(=O)C(=O)N2CCCC[C@H]2C(=O)O[C@H]([C@H](C)C[C@@H]2CC[C@H](n3cnnn3)[C@H](OC)C2)CC(=O)[C@H](C)/C=C(\C)[C@@H](O)[C@@H](OC)C(=O)[C@H](C)C[C@H](C)/C=C/C=C/C=C/1C [zotarolimus]
Procedure, shortened: as §1

[4] = compound: COc1cc(C(=O)O)ccc1NC(=O)[C@@H]1N[C@@H](CC(C)(C)C)[C@](C#N)(c2ccc(Cl)cc2F)[C@H]1c1cccc(Cl)c1F [idasanutlin]
Procedure, shortened: as §1

[5] = compound: COc1cc(Nc2ncc3c(n2)-c2ccc(Cl)cc2C(c2c(F)cccc2OC)=NC3)ccc1C(=O)O [alisertib]
Procedure, shortened: as §1

[6] = compound: COc1cc2nc(-c3cc(F)ccc3O)nc(N[C@@H]3CNC[C@H]3C(C)(C)O)c2cc1OC
Procedure, shortened: as §1

[7] = compound: COc1cc2ncnc(Nc3ccc(F)c(Cl)c3)c2cc1OCCCN1CCOCC1 [gefitinib]
Procedure, shortened: as §1

[8] = compound: COc1cccc2cc(-c3nc([C@H]4CC[C@H](C(=O)O)CC4)n4ncnc(N)c34)[nH]c12
Procedure, shortened: as §1

[9] = compound: CS(=O)(=O)CCNCc1ccc(-c2ccc3ncnc(Nc4ccc(OCc5cccc(F)c5)c(Cl)c4)c3c2)o1 [lapatinib]
Procedure, shortened: as §1

[10] = compound: CS(=O)(=O)N1CCN(Cc2cc3nc(-c4cccc5[nH]ncc45)nc(N4CCOCC4)c3s2)CC1 [pictilisib]
Procedure, shortened: as §1

Row | Target | log2 fold change [1] | log2 fold change [2] | log2 fold change [3] | log2 fold change [4] | log2 fold change [5] | log2 fold change [6] | log2 fold change [7] | log2 fold change [8] | log2 fold change [9] | log2 fold change [10]
1 | PSMA7 isoform 2 (UniProt O14818) | inactive: -0.519 | inactive: 0.295 | inactive: -0.182 | inactive: 0.086 | inactive: -0.113 | inactive: 0.367 | inactive: -0.032 | inactive: 0.106 | inactive: -0.347 | 
2 | PSMD1 (UniProt Q99460) | inactive: 0.009 | inactive: -0.002 | inactive: 0.011 | inactive: -0.005 | inactive: -0.126 | inactive: -0.077 | inactive: -0.046 | inactive: -0.056 | inactive: 0.069 | inactive: -0.052
3 | PTPRA (UniProt P18433) | inactive: -0.056 | inactive: 0.036 | inactive: 0.016 | inactive: -0.003 | inactive: -0.028 | inactive: 0.073 | inactive: 0.035 | inactive: 0.012 | inactive: 0.03 | inactive: 0.206
4 | PSMD10 (UniProt O75832) | inactive: 0.072 | inactive: 0.005 | inactive: 0.058 | inactive: -0.068 | inactive: -0.01 | inactive: 0.059 | inactive: 0.013 | inactive: -0.025 | inactive: -0.041 | inactive: -0.07
5 | PSMB7 (UniProt Q99436) | inactive: -0.05 | inactive: 0.039 | inactive: -0.025 | inactive: 0.034 | inactive: -0.008 | inactive: -0.037 | inactive: -0.013 | inactive: 0.022 | inactive: 0.061 | inactive: -0.005
6 | PUDP isoform 4 (UniProt Q08623) | inactive: 0.127 | inactive: -0.042 | inactive: 0.01 | inactive: -0.012 | inactive: 0.021 | inactive: -0.05 | inactive: -0.002 | inactive: 0.016 | inactive: 0.072 | inactive: -0.007
7 | PSMC3 (UniProt P17980) | inactive: -0.035 | inactive: 0.043 | inactive: 0.001 | inactive: 0.045 | inactive: -0.056 | inactive: -0.015 | inactive: -0.045 | inactive: -0.038 | inactive: 0.047 | inactive: 0.013
8 | PRTFDC1 (UniProt Q9NRG1) | inactive: 0.049 | inactive: -0.069 | inactive: 0.001 | inactive: -0.027 | inactive: -0.148 | inactive: 0.015 | inactive: 0.017 | inactive: 0.034 | inactive: 0.068 | inactive: -0.002
9 | QRICH1 (UniProt Q2TAL8) | inactive: 0.015 | inactive: 0.004 | inactive: -0.022 | inactive: -0.072 | inactive: 0.071 | inactive: 0.08 | inactive: 0.137 | inactive: 0.032 | inactive: 0.011 | 
10 | PURA (UniProt Q00577) | inactive: -0.336 | inactive: 0.277 | inactive: -0.093 | inactive: 0.179 | inactive: -0.106 | inactive: -0.052 | inactive: -0.024 | inactive: -0.113 | inactive: 0.104 | inactive: -0.071
11 | PSMA8 (UniProt Q8TAA3) | inactive: -0.032 | inactive: 0.039 | inactive: -0.007 | inactive: 0.005 | inactive: -0.074 | inactive: -0.02 | inactive: -0.038 | inactive: 0.026 | inactive: -0.011 | inactive: 0.089
12 | PTBP3 isoform 4 (UniProt O95758) | inactive: 0.03 | inactive: 0.051 | inactive: 0.041 | inactive: -0.004 | inactive: -0.042 | inactive: -0.038 | inactive: 0.021 | inactive: -0.004 | inactive: 0.048 | inactive: 0.003
13 | QTRT2 isoform 4 (UniProt Q9H974) | inactive: -0.052 | inactive: -0.034 | inactive: -0.029 | inactive: -0.011 | inactive: 0.031 | inactive: 0.005 | inactive: -0.003 | inactive: 0.09 | inactive: 0.032 | inactive: 0
14 | PSMA2 (UniProt P25787) | inactive: 0.028 | inactive: 0 | inactive: 0.042 | inactive: 0.02 | inactive: -0.064 | inactive: -0.009 | inactive: -0.029 | inactive: -0.03 | inactive: 0.033 | inactive: 0.021
15 | PUS10 (UniProt Q3MIT2) | inactive: -0.009 | inactive: 0.071 | inactive: -0.078 | inactive: -0.215 | inactive: 0.266 | inactive: -0.113 | inactive: 0.039 | inactive: -0.035 | inactive: 0.047 | inactive: 0.027
16 | PSMD8 (UniProt K7ERW6) | inactive: -0.188 |  |  |  |  |  |  |  |  | 

Single records, from the list above. Order of values: log2 fold change [1]	log2 fold change [2]	log2 fold change [3]	log2 fold change [4]	log2 fold change [5]	log2 fold change [6]	log2 fold change [7]	log2 fold change [8]	log2 fold change [9]	log2 fold change [10]
PSMD1 (UniProt Q99460) as listed: inactive: 0.009	inactive: -0.002	inactive: 0.011	inactive: -0.005	inactive: -0.126	inactive: -0.077	inactive: -0.046	inactive: -0.056	inactive: 0.069	inactive: -0.052
QTRT2 isoform 4 (UniProt Q9H974) as listed: inactive: -0.052	inactive: -0.034	inactive: -0.029	inactive: -0.011	inactive: 0.031	inactive: 0.005	inactive: -0.003	inactive: 0.09	inactive: 0.032	inactive: 0

(list continues)

Row | Target | log2 fold change [1] | log2 fold change [2] | log2 fold change [3] | log2 fold change [4] | log2 fold change [5] | log2 fold change [6] | log2 fold change [7] | log2 fold change [8] | log2 fold change [9] | log2 fold change [10]
17 | PTAR1 (UniProt Q7Z6K3) | inactive: -0.073 | inactive: 0.061 | inactive: 0.041 | inactive: -0.037 | inactive: 0.064 | inactive: 0.013 | inactive: 0.026 | inactive: 0.128 | inactive: 0 | inactive: 0.018
18 | QTRT1 (UniProt Q9BXR0) | inactive: 0.031 | inactive: -0.036 | inactive: 0.024 | inactive: -0.005 | inactive: -0.004 | inactive: -0.014 | inactive: -0.002 | inactive: 0.029 | inactive: -0.008 | inactive: 0.033
19 | QKI (UniProt Q96PU8) | inactive: -0.004 | inactive: -0.004 | inactive: -0.026 | inactive: -0.032 | inactive: -0.077 | inactive: -0.079 | inactive: 0.019 | inactive: 0.011 | inactive: -0.007 | inactive: -0.032
20 | PYCR2 (UniProt Q96C36) | inactive: 0.031 | inactive: -0.08 | inactive: -0.01 | inactive: -0.038 | inactive: -0.025 | inactive: -0.026 | inactive: 0.011 | inactive: 0.035 | inactive: 0.028 | inactive: -0.066
21 | PUF60 (UniProt Q9UHX1) | inactive: 0.007 | inactive: 0.087 | inactive: 0.026 | inactive: 0.022 | inactive: -0.05 | inactive: -0.028 | inactive: 0.014 | inactive: 0.008 | inactive: 0.063 | inactive: 0
22 | PSMA5 (UniProt P28066) | inactive: 0.018 | inactive: 0.003 | inactive: -0.008 | inactive: 0.027 | inactive: -0.05 | inactive: -0.068 | inactive: -0.018 | inactive: 0.013 | inactive: 0.05 | inactive: -0.052
23 | PYCARD isoform 2 (UniProt Q9ULZ3) | inactive: -0.596 |  |  |  |  |  |  |  |  | 
24 | PUS7 isoform 2 (UniProt Q96PZ0) | inactive: -0.044 | inactive: -0.026 | inactive: -0.007 | inactive: 0.002 | inactive: -0.077 | inactive: -0.007 | inactive: 0.061 | inactive: -0.03 | inactive: -0.018 | inactive: 0.044
25 | PTMS (UniProt P20962) | inactive: 0.081 | inactive: -0.062 | inactive: -0.029 | inactive: 0.025 | inactive: -0.071 | inactive: -0.149 | inactive: -0.013 | inactive: 0.018 | inactive: 0.051 | inactive: 0.02
26 | PTK2B (UniProt Q14289) | inactive: 0.083 | inactive: -0.077 | inactive: 0.019 | inactive: 0.026 | inactive: 0.064 | inactive: 0.345 | inactive: -0.011 | inactive: -0.057 | inactive: -0.022 | inactive: 0.117
27 | PSMC4 (UniProt P43686) | inactive: -0.052 | inactive: 0.066 | inactive: 0.008 | inactive: 0.017 | inactive: -0.049 | inactive: -0.007 | inactive: -0.052 | inactive: -0.022 | inactive: 0.033 | inactive: -0.099
28 | PSPC1 (UniProt Q8WXF1) | inactive: 0.008 | inactive: 0.048 | inactive: 0.026 | inactive: 0.03 | inactive: -0.084 | inactive: -0.146 | inactive: 0.061 | inactive: -0.042 | inactive: 0.152 | inactive: -0.081
29 | PYROXD1 (UniProt Q8WU10) | inactive: -0.11 | inactive: 0.288 | inactive: -0.342 | inactive: -0.039 | inactive: 0.101 | inactive: -0.056 | inactive: -0.143 | inactive: 0.139 | inactive: 0.15 | 
30 | PTP4A2 (UniProt Q12974) | inactive: 0.078 | inactive: -0.062 | inactive: -0.022 | inactive: -0.079 | inactive: -0.055 | inactive: 0.033 | inactive: -0.007 | inactive: -0.11 | inactive: -0.078 | 
31 | PSMD9 (UniProt O00233) | inactive: -0.028 | inactive: -0.053 | inactive: -0.021 | inactive: 0.005 | inactive: -0.074 | inactive: 0.056 | inactive: -0.013 | inactive: -0.005 | inactive: -0.021 | active: -0.261
32 | PXN (UniProt P49023) | inactive: 0.068 | inactive: -0.045 | inactive: 0.013 | inactive: 0.022 | inactive: -0.026 | inactive: -0.061 | inactive: -0.015 | inactive: 0.036 | inactive: -0.019 | inactive: -0.038
